Reference: US20250268889A1, “COMPOUNDS AND COMBINATIONS THEREOF FOR TREATING NEUROLOGICAL AND PSYCHIATRIC CONDITIONS” (priority 2022, published 2025)
At least one structure is not confirmed: it was looked up by name or label, or the drawing left a doubt. Some results were stated once for a whole list of compounds, not compound by compound.

Assay: Pharmacokinetics of the subject combination (steady state)
Conditions: for time of Cmax post-dose: metabolite, after administration of the subject combination

Row | Structure (SMILES) | time to steady state plasma concentrations (given as the subject combination) | time of Cmax post-dose
1 | Br.COc1ccc2c(c1)[C@]13CCCC[C@@H]1[C@H](C2)N(C)CC3 [dextromethorphan, morphinan, 3-methoxy-17-methyl-, (9α, 13α, 14α), hydrobromide monohydrate] | ≤ 8 days | 
2 | CC(NC(C)(C)C)C(O)c1cccc(Cl)c1 (stereo not shown) [erythrohydroxybupropion] |  | approximately 4 hours
3 | C[C@H](NC(C)(C)C)[C@@H](O)c1cccc(Cl)c1 [threohydroxybupropion] |  | approximately 4 hours
4 | C[C@H]1NC(C)(C)CO[C@]1(O)c1cccc(Cl)c1 [hydroxybupropion] |  | about 3 hours
